From publication PMC7150977, “Regional Intestinal Drug Permeability and Effects of Permeation Enhancers in Rat” (Pharmaceutics, 2020)
Where two headings read alike, the source gives them in different places.

Columns and labels:
jejunum = assay: Rat single-pass intestinal perfusion (SPIP), jejunal lumen-to-blood Peff from plasma appearance; assay type: in vivo; details: 100 µM, mean ±SD, n = 6
colon = details: male, Han Wistar, rat, in vivo, 60 min, 100 µM
[1] = design: method as in PMID 9836611; details: cited from earlier work

- Plasma Appearance Peff (jejunum; Jejunum pH 6.5, control solution): 0.022 ± 0.01 ×10^–4 cm/s
- Plasma Appearance Peff (jejunum; Jejunum pH 7.4, control solution): 0.016 ± 0.005 ×10^–4 cm/s
- Plasma Appearance Peff (colon; pH 6.5): 0.015 ± 0.007 ×10^–4 cm/s
- Plasma Appearance Peff (colon; pH 7.4): 0.011 ± 0.005 ×10^–4 cm/s
SMILES: CC(C)NCC(O)COc1ccc(CC(N)=O)cc1 (stereo not drawn) [Atenolol, atenolol]
- HBA (hydrogen bond acceptor) [1]: 4/4
- HBD (hydrogen bond donor) [1]: 4/4
